# Measurements: PubChem BioAssay AID2685 (National Center for Advancing Translational Sciences (NCATS), 2010)
# This is one part of the list. The main result of the screen is listed elsewhere. These columns were measured beside it and carry no call. The list favours compounds with an active or inconclusive main result. The note in brackets gives the kind of curve behind each potency; many fits are weak.
# Experiment: qHTS Assay for Lipid Storage Modulators in Drosophila S3 Cells;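 for cell number change: cells counted by Cell Tracker Red CMTPX staining in the red channel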
# Settings: BODIPY lipid droplet fluorescence, 18-24 h; for cell number change: measured here: cell count max response, cells fed with added oleic acid
# Outline: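 Drosophila S3 cells got compounds at several concentrations plus oleic acid (400 uM solution). Laser-scanning cytometry with 488 nm excitation read lipid droplets at 500-530 nm and cells at 575-640 nm. Percent activity was relative to 20 uM Triacsin C.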
# [1] = measured here: cell number channel AC50, cells fed with added oleic acid
# [2] = measured here: lipid fluorescence (Fed channel) AC50, cells fed with added oleic acid
Compound,cell number change [%],AC50 [1],AC50 [2]
CCCNS(=O)(=O)c1ccc(OCC(=O)N2CCN(Cc3ccc4c(c3)OCO4)CC2)cc1,145,"29.1 µM [rising, single point]","29.1 µM [rising, single point]"
CC(C)(C)n1cc(C(=O)c2ccccc2OCCCF)cn1,-9.07,,
CC[N+](CC)(CC)CCCOC(=O)C(O)(c1ccccc1)C1CCCCC1 (stereo unspecified),-14.6,,"20.6 µM [falling, partial curve]"
Nc1nc(SCCC(F)=C(F)F)n[nH]1,-18.4,,
O=C1NC(=S)N(c2ccc(Br)cc2)C(=O)/C1=C/N1CCN(C(=O)c2ccco2)CC1,78.7,"18.4 µM [rising, single point]",
C/C(=N\N1CCCCC1)c1c(O)[nH]c(=O)[nH]c1=O,12.9,,
N#CCCn1cc(C(=O)Nc2ccccc2Cl)c(-c2ccc([N+](=O)[O-])cc2)n1,3.75,,"6.51 µM [rising, single point]"
CCN1CCN(Cc2ccccc2C)CC1,-27.2,,"29.1 µM [falling, single point]"
BrCCc1ccccc1,1.16,,
N#Cc1ccc(Cn2cc(C(=O)c3ccco3)c3ccccc32)cc1,-16.9,,"29.1 µM [falling, single point]"
Cn1c2ccccc2c2c(C(=O)N3CCC4(CC3)OCCO4)cn(C3CCCCC3)c(=O)c21,130,"10.3 µM [rising, partial curve]",
C#C[C@@]1(O)CCC2C3CCC4=C/C(=N/OCC(=O)NC(CCC(N)=O)C(=O)O)CC[C@]4(C)C3CC[C@@]21C (stereo partly specified),,,"0.259 µM [rising, partial curve, poor fit]"
CC1(C)CC(N(CCc2ccccc2)Cc2ccccc2)CCO1 (stereo unspecified),-25.5,,"20.6 µM [falling, single point]"
COCCOC(=O)c1c(C)oc2ccc(OC(=O)N(C)C)cc12,78.5,"23.1 µM [rising, single point]",
CCN(CC)C(=O)c1ccc(NC(=O)c2c(C)noc2C)cc1,10.6,"0.092 µM [falling, full curve, poor fit]","3.26 µM [falling, full curve]"
O=C(Cn1cnc2ccccc2c1=O)NCCC(=O)N1CCC2(CC1)OCCO2,5.57,,
COC(=O)C1=C(c2ccc(OC(F)(F)F)cc2)C[C@@H]2CC[C@H]1N2C(=O)NC(C)C,-5.78,,"0.0058 µM [rising, full curve, poor fit]"
Cc1cccc(-n2c(/C=C/c3ccc([N+](=O)[O-])o3)nc3ccccc3c2=O)c1,,,"7.31 µM [falling, partial curve, poor fit]"

# Exported bar-delimited: 2 of the compounds above.
Compound | cell number change [%] | AC50 [1] | AC50 [2]
COC(=O)C1=C(c2ccc(OC(F)(F)F)cc2)C[C@@H]2CC[C@H]1N2C(=O)NC(C)C | -5.78 |  | 0.0058 µM [rising, full curve, poor fit]
Cc1cccc(-n2c(/C=C/c3ccc([N+](=O)[O-])o3)nc3ccccc3c2=O)c1 |  |  | 7.31 µM [falling, partial curve, poor fit]
